We go through six substances from publication doi:10.1101/2024.08.15.608058.

Protein sequences, listed by entry. Tags and fused reporters are not part of them.
UniProt Q5TEA3: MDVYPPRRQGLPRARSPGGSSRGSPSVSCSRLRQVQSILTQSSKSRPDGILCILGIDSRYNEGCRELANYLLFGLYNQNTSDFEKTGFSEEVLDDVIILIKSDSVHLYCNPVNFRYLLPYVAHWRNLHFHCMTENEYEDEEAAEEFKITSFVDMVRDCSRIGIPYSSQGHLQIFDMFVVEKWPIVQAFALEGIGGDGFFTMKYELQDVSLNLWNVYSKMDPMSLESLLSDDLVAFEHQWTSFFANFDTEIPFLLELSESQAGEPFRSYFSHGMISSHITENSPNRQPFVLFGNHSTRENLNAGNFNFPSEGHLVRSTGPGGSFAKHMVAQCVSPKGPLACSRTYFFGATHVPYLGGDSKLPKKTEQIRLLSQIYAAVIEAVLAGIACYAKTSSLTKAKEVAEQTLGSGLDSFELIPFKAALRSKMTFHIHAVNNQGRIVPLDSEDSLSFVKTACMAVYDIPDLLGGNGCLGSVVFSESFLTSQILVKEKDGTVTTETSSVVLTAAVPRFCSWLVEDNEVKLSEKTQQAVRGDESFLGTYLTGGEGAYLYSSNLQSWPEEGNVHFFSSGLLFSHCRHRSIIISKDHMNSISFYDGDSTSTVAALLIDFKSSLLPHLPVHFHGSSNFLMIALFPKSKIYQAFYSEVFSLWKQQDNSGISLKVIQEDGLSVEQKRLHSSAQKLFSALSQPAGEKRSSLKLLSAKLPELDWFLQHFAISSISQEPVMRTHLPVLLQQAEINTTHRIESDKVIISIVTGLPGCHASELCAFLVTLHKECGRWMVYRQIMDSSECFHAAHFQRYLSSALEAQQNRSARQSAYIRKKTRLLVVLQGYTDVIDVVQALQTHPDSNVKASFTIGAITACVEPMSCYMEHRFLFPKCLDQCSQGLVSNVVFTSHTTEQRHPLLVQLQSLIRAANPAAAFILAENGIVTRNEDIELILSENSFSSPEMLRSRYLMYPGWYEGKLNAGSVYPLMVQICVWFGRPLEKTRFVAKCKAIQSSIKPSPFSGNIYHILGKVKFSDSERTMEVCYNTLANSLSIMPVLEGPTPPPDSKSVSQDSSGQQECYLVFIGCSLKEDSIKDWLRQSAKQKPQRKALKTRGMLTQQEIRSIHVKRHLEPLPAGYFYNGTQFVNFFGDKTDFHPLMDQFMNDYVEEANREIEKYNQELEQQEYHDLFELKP
UniProt P36405: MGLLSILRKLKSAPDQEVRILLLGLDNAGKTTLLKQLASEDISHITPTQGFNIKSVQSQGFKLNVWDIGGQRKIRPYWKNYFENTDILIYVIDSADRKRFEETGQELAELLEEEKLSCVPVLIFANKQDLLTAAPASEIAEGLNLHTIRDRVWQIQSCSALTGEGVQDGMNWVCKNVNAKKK
UniProt Q9NYC9: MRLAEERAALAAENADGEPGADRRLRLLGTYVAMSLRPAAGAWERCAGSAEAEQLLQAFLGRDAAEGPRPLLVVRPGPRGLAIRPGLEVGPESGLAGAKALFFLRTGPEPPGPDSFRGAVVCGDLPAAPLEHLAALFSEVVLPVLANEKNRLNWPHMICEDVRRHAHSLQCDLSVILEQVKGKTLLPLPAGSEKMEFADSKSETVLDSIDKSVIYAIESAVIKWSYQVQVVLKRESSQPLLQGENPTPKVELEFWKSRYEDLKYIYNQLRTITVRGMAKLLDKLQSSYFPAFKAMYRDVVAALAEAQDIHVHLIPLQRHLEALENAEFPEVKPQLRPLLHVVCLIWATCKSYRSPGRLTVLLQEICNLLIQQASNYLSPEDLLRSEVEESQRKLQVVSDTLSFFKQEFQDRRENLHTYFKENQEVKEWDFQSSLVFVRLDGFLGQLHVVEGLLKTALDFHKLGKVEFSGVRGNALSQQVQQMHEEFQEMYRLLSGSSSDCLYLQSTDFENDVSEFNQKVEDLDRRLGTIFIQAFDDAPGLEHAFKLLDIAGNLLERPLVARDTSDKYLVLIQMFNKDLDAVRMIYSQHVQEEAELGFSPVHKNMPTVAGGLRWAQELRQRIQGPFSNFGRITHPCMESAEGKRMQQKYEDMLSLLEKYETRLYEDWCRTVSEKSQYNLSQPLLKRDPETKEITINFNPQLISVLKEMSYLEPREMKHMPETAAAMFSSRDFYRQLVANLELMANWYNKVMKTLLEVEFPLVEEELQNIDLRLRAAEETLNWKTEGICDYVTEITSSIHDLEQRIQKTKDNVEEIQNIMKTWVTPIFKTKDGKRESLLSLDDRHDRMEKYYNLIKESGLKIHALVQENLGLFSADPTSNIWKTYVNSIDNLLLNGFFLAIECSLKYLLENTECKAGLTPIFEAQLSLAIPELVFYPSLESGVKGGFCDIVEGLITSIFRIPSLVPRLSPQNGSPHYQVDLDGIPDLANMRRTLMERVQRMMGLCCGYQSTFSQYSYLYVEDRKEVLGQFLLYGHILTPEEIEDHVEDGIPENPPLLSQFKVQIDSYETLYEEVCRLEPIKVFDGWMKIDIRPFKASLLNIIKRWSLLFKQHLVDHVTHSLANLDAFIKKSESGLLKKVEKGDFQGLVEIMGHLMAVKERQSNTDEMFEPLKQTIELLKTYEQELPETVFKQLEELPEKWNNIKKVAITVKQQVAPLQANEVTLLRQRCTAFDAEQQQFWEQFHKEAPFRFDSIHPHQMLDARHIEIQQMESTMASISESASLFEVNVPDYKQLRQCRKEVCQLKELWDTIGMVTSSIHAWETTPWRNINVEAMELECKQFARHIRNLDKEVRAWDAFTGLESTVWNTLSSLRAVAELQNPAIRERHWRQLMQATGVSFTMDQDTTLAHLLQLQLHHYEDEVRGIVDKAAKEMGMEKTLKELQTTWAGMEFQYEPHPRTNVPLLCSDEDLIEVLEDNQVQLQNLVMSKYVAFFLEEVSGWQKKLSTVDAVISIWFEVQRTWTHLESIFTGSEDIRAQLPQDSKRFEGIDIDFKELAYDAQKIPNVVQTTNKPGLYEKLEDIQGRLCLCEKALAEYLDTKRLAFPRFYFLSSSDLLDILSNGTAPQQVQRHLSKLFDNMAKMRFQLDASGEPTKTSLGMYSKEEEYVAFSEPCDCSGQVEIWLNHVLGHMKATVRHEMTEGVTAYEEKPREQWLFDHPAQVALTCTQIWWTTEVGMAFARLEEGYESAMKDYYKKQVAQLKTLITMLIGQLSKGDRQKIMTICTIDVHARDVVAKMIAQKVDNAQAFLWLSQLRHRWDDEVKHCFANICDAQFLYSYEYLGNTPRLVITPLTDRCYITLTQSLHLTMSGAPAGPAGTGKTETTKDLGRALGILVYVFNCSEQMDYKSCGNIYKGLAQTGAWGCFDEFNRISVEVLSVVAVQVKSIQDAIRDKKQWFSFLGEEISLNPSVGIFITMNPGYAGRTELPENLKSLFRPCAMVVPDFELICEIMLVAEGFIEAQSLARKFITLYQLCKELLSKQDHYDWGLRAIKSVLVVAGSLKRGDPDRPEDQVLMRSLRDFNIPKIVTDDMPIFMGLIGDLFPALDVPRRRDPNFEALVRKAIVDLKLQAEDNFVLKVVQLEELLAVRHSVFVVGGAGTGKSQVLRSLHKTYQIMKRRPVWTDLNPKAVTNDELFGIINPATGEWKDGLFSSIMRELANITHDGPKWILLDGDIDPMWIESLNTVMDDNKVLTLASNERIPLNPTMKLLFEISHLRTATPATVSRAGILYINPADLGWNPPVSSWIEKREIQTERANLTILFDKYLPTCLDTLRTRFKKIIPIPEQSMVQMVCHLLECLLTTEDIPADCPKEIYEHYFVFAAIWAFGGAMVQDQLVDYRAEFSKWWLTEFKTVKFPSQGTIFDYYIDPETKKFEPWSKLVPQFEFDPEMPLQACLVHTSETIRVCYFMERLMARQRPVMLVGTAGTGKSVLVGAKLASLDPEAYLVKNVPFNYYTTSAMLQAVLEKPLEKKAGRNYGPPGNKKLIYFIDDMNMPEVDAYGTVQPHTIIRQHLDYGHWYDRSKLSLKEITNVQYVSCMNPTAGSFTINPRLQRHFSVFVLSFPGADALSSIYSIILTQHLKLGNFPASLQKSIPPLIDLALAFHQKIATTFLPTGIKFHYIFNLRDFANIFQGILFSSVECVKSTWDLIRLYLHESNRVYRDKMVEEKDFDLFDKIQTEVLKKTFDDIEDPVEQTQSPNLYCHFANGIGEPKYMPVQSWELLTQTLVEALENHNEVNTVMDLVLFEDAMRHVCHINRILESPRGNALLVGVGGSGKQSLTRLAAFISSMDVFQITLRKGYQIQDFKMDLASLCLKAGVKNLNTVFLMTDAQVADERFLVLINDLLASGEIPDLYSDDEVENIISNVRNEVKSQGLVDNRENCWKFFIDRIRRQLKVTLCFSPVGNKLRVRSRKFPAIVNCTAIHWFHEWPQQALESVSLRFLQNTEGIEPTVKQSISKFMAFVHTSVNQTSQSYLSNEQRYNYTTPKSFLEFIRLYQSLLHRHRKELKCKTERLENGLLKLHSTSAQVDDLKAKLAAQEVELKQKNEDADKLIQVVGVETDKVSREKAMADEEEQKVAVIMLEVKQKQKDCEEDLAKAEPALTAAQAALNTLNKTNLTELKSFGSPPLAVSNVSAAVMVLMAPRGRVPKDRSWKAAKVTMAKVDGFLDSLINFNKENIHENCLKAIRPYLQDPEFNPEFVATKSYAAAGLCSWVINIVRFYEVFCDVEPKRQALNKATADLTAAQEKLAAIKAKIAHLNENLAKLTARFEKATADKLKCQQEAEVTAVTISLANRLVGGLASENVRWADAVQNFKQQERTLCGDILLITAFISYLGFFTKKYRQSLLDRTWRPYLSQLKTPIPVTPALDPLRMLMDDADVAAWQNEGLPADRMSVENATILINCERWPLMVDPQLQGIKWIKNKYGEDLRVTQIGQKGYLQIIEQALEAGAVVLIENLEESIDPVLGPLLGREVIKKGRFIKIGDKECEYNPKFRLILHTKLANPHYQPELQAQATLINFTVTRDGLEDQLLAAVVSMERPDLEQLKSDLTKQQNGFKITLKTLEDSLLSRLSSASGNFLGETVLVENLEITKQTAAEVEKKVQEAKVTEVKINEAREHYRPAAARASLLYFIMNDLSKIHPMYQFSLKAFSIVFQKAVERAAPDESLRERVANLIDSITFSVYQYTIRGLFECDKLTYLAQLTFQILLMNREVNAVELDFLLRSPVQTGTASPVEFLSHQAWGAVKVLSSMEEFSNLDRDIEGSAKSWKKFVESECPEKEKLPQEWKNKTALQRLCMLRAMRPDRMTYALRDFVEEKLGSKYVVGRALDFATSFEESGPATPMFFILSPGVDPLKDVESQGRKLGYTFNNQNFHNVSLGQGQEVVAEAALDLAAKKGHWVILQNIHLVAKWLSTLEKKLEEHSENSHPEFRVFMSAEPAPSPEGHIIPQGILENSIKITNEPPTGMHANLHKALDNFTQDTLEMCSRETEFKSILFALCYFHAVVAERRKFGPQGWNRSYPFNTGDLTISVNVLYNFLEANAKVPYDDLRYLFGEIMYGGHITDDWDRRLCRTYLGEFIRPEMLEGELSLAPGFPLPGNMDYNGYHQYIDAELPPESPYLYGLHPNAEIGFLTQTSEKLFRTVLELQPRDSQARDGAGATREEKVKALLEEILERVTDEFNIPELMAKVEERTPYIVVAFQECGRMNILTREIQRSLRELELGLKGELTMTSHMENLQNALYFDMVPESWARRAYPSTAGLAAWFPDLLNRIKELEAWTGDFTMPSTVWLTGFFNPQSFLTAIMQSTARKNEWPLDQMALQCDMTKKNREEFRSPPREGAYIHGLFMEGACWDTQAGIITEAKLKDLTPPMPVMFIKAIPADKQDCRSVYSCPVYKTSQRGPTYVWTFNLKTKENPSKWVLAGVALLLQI
UniProt Q13561: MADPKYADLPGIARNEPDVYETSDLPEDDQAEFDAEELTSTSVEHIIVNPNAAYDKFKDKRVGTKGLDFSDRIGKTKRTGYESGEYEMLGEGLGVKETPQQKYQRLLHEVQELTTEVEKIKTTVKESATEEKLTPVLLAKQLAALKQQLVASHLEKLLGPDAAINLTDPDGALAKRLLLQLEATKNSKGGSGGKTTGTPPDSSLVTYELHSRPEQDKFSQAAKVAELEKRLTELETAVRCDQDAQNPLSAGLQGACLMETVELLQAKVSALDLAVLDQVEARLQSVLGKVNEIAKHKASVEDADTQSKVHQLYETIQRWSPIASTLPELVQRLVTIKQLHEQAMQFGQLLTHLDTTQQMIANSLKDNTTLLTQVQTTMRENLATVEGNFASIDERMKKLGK
UniProt Q03135: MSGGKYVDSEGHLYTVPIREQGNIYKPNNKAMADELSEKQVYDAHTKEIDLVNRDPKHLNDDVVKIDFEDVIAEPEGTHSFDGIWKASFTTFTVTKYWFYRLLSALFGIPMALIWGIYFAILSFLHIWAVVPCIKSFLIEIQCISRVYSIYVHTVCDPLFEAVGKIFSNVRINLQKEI

Results are given in words; binding and its absence hold for the method and conditions named. In cells and extracts the contact can be indirect. These calls come from enrichment with a bait or labelling near it, and not all partners need be listed.

The assay concerns the target DNAAF9 (human Shulin), endogenous in human airway epithelial cells (human (endogenous in HAECs)) (UniProt Q5TEA3). The experiment in a line: affinity purification with mass spectrometry.
Take DYNC1H1 (from UniProt Q14204 1-4646): the binding entry is “binds”.
Consider “ARL3, endogenous in human airway epithelial cells (from UniProt P36405 1-182)”, for which the binding result is “binds”.
The result for DNAH9 (from UniProt Q9NYC9 1-4486) reads “binds”.
The same measure for DNAH5 (from UniProt Q8TE73 1-4624): “binds”; for DCTN2 (from UniProt Q13561 1-401): “binds”; for CAV1 (from UniProt Q03135 1-178): “binds”.
